# Source: patent publication US11905253B2, “Compounds and pharmaceutical compositions for reducing CD95-mediated cell motility” (INSTITUT NATIONAL DE LA SANTE ET DE LA RECHERCHE MEDICALE …, priority 2018, dated 2024)
# For at least one compound, name, drawing or mass did not settle the structure.
# Tests used:
# [1] = test system: CD95-mediated Ca2+ response in Th17 cells; experiment: CD95-mediated Ca2+ response in Th17 cells (FIG. 5); format: cell-based, human; settings: 1 μM, 1 h pre-incubation, cl-CD95L 100 ng/mL
# Protocol: All cells were purchased from ATCC (Molsheim Cedex, France). The T cell lines H9 and CEM were cultured in RPMI supplemented with 8% heat-inactivated FCS (v/v) and 2 mM L-glutamine at 37° C./5% CO2. HEK293T cells were cultured at 37° C./5% CO2 in DMEM supplemented with 8% heat-inactivated FCS and 2 mM L-glutamine. PBMCs were isolated from buffy-coat by density gradient centrifugation on lymphocyte separation medium (Eurobio, Les Ulis, France). Th17 cells (CD4+CCR6+CXCR3−) were sorted from PBMCs using a Th17 Enrichment kit (StemCell Technologies, Grenoble, France). Human umbilical vein endothelial cells (HUVEC) were grown in Endothelial Growth Medium (EGM) supplemented with 2% FCS and EGM-2 Bullet Kit (Lonza, Levallois-Perret, France).
# Th17 cells were pre-incubated for 1 h with TAT-control, minCID, or compound 13 (each at 1 μM), and then stimulated with cl-CD95L (100 ng/mL). [Ca^2+]CYT was assessed in Fluo2 LR-AM (2 μM)-loaded cells.
# [2] = test system: lupus-prone mice (MRL Lpr/+); experiment: Therapeutic activity in lupus-prone MRL Lpr/+ mice (FIG. 7-9); format: in vivo
# [3] = biological target: T1, CD95 (Homo sapiens, UniProt P25445); experiment: Pull-down assay with biotin-conjugated compound, streptavidin magnetic beads, immunoblot (FIG. 2); format: binding; settings: lysate of HEK cells transfected with CD95 and PLCγ1, 50 μM, 30 min
# T1 construct: expressed in transfected cells; host or cells: HEK-293T
# T1 sequence (P25445 26-335): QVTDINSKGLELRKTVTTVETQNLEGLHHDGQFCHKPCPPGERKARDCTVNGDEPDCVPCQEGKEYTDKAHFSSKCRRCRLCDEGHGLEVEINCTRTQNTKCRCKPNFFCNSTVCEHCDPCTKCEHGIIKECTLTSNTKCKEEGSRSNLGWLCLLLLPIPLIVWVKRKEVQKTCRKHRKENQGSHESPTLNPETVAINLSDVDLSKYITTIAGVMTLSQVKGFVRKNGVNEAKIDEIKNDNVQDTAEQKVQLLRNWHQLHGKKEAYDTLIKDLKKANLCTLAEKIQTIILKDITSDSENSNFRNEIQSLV
# [4] = test system: CD95-mediated Ca2+ response; experiment: CD95-mediated Ca2+ response in mouse PBLs (Fluo2 LR-AM), AUC (FIG. 3B, FIG. 4); format: cell-based; settings: 1 h pre-treatment, cl-CD95L 100 ng/mL, read-out: IC50, CD95-mediated Ca2+ response (AUC, intracellular Ca2+ concentration)
# [5] = test system: Th17 trafficking across endothelial cells; experiment: Transendothelial migration of Th17 cells in a Boyden chamber (FIG. 6); format: cell-based, human; settings: 1 or 10 μM, 1 h pre-incubation, cl-CD95L 100 ng/mL
# [6] = biological target: T2, binding of PLCγ1 to CD95 (Homo sapiens, UniProt P19174); experiment: CD95 immunoprecipitation in HEK cells transfected with CD95 and PLCγ1, stimulated with cl-CD95L (FIG. 3A); format: cell-based; settings: 50 μM, 1 h pre-incubation, cl-CD95L 100 ng/mL 5 min; FIGS. 3A and 3B
# T2 construct: expressed in transfected cells; host or cells: HEK cells
# T2 sequence (P19174 1-1290): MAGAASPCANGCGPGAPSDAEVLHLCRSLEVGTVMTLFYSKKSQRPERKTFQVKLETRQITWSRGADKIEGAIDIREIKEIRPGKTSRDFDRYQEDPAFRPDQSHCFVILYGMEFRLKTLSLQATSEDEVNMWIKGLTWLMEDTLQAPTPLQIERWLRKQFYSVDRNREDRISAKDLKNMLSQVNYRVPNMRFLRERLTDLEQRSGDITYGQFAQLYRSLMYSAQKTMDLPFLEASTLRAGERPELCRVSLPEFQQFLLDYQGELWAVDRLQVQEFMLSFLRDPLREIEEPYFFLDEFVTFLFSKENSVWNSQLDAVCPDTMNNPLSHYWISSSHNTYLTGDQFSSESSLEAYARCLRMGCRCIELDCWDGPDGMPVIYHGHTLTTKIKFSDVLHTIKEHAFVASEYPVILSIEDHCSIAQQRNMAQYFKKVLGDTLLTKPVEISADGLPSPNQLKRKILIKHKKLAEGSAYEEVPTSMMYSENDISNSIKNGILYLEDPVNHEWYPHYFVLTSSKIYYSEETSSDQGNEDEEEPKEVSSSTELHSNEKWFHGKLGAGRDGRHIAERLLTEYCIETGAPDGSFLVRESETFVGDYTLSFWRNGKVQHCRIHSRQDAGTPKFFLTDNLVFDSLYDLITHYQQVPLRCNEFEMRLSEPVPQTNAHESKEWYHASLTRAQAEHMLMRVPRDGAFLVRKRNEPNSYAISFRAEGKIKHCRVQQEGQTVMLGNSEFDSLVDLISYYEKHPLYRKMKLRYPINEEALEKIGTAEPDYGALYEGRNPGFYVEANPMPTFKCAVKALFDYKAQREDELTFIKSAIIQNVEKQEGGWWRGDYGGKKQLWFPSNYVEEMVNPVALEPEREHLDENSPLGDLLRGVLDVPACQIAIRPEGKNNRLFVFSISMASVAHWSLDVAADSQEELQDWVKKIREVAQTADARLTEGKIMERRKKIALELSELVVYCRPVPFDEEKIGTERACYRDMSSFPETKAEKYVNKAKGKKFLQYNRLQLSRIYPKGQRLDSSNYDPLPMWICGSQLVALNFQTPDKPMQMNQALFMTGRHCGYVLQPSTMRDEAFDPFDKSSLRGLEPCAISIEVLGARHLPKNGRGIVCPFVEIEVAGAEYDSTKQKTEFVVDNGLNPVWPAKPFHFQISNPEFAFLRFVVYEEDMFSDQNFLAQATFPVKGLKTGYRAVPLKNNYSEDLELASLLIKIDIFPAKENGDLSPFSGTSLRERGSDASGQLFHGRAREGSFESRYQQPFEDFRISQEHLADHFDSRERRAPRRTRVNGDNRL
smiles,measurement,setting,value
CC(O)C(N)C(=O)NCCN(C(=O)CCS)C(CCCNC(=N)N)C(=O)NCCN(C(=O)CCCCCN)C(Cc1cnc[nH]1)C(=O)NCCN(C(=O)CCCCNC(=N)N)C(CCCCN)C(N)=O (centres unmarked) [Compound 13],CD95-mediated Ca2+ response in Th17 cells,[1],inhibited the CD95-mediated Ca^2+ response
same,severity of pathological lesions in the glomeruli,"[2]; MRL Lpr/+ mice, three times per week for 5 weeks, FIG. 7",marked reduction
same,number of mesangial proliferation and adhesion of the Bowman's capsule,"[2]; MRL Lpr/+ mice, three times per week for 5 weeks, vs control mice",significant reduction
same,serum C3 concentration,[2]; compared with control-treated mice,marked increase
same,IL17-expressing CD4+ cells in the inflamed kidneys,"[2]; densitometry, FIG. 9",absent
same,"expression of Th17 markers (RORγt, IL23R, and IL17F) in the kidneys","[2]; mRNA, vs control mice, P=0.0013, FIG. 8",significantly lower
same,deposition of C3 in kidney sections,"[2]; microscopy, data not shown",reduced deposition of C3
same,interaction with CD95 (pull-down),[3],not with CD95
same,IC50,[4],68 nM
same,Th17 trafficking across endothelial cells (endothelial transmigration),[5],prevented Th17 trafficking across endothelial cells
same,binding of PLCγ1 to CD95 in cells exposed to cl-CD95L,[6],abrogate binding of PLCγ1 to CD95
